In paper PMC4434539:
Results are given in words; binding and its absence hold for the method and conditions named. Binding seen in cells or lysates may run through a third protein. Some results given as binding are weak or reduced against the parent protein; the word gives no strength. Where a sequence is shown, tags or fusion partners need not be part of it.

Experiments:
[1] = biological target: T1, Mic60-FLAG (S. cerevisiae) (UniProt P36112); test: co-IP; ∆MICOS cells expressing Mic60-FLAG at the MIC60 locus and pMic60-EGFP from the ura3 locus; cleared lysate cross-linked with 1 mM DSP, solubilised with 1% digitonin; purified with α-FLAG antibody and protein G beads or with α-GFP MicroBeads; Western blot
T1 sequence: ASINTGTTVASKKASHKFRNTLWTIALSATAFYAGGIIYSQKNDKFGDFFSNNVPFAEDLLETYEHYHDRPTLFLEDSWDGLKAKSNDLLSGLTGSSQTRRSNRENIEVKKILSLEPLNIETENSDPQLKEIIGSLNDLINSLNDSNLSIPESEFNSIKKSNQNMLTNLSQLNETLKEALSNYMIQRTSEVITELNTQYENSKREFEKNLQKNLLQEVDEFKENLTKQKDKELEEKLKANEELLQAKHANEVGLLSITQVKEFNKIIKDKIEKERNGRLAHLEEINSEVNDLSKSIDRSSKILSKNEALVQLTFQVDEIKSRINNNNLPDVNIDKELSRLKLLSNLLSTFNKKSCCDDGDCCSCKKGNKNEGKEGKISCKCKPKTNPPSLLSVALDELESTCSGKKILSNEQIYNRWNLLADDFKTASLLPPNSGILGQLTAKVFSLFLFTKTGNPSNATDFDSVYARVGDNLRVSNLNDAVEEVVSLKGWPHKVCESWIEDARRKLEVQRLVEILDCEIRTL

[2] = biological target: T2, Mic60-EGFP (S. cerevisiae) (UniProt P36112); test: as above
T2 sequence: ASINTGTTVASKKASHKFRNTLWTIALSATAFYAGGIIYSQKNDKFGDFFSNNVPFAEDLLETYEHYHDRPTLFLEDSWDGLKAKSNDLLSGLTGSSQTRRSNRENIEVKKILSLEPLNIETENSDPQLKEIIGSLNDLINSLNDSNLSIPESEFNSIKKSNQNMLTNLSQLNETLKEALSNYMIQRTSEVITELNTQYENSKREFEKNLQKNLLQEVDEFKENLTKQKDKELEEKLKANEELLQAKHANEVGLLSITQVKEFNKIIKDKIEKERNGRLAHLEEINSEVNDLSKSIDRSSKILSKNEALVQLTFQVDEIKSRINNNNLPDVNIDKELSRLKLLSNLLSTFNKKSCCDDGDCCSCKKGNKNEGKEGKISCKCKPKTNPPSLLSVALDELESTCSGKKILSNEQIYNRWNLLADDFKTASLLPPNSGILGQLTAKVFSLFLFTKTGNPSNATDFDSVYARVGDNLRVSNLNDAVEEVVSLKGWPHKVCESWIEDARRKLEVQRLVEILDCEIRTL

B1: Mic60-EGFP (protein, UniProt P36112 18-540)
chain: ASINTGTTVASKKASHKFRNTLWTIALSATAFYAGGIIYSQKNDKFGDFFSNNVPFAEDLLETYEHYHDRPTLFLEDSWDGLKAKSNDLLSGLTGSSQTRRSNRENIEVKKILSLEPLNIETENSDPQLKEIIGSLNDLINSLNDSNLSIPESEFNSIKKSNQNMLTNLSQLNETLKEALSNYMIQRTSEVITELNTQYENSKREFEKNLQKNLLQEVDEFKENLTKQKDKELEEKLKANEELLQAKHANEVGLLSITQVKEFNKIIKDKIEKERNGRLAHLEEINSEVNDLSKSIDRSSKILSKNEALVQLTFQVDEIKSRINNNNLPDVNIDKELSRLKLLSNLLSTFNKKSCCDDGDCCSCKKGNKNEGKEGKISCKCKPKTNPPSLLSVALDELESTCSGKKILSNEQIYNRWNLLADDFKTASLLPPNSGILGQLTAKVFSLFLFTKTGNPSNATDFDSVYARVGDNLRVSNLNDAVEEVVSLKGWPHKVCESWIEDARRKLEVQRLVEILDCEIRTL
B1 was tested, and the binding [1] was “binds”.

B2: Mic60-FLAG (protein, UniProt P36112 18-540)
chain: ASINTGTTVASKKASHKFRNTLWTIALSATAFYAGGIIYSQKNDKFGDFFSNNVPFAEDLLETYEHYHDRPTLFLEDSWDGLKAKSNDLLSGLTGSSQTRRSNRENIEVKKILSLEPLNIETENSDPQLKEIIGSLNDLINSLNDSNLSIPESEFNSIKKSNQNMLTNLSQLNETLKEALSNYMIQRTSEVITELNTQYENSKREFEKNLQKNLLQEVDEFKENLTKQKDKELEEKLKANEELLQAKHANEVGLLSITQVKEFNKIIKDKIEKERNGRLAHLEEINSEVNDLSKSIDRSSKILSKNEALVQLTFQVDEIKSRINNNNLPDVNIDKELSRLKLLSNLLSTFNKKSCCDDGDCCSCKKGNKNEGKEGKISCKCKPKTNPPSLLSVALDELESTCSGKKILSNEQIYNRWNLLADDFKTASLLPPNSGILGQLTAKVFSLFLFTKTGNPSNATDFDSVYARVGDNLRVSNLNDAVEEVVSLKGWPHKVCESWIEDARRKLEVQRLVEILDCEIRTL
With B2 the binding [2] was “binds”.
